Test results published in PubChem BioAssay (NCATS).
This list holds what a sample rich in hits left over. Results filed as inconclusive are left out. Active and inactive are the calls of the source. Calls come from the whole dose curve; as a rule, active = well fitted inhibition curve with a large enough effect in the repeat runs; inconclusive = weak or mixed curves; inactive = flat fitted curve, though single readings scatter.

Amino acid sequences for entries named in this document (tags omitted).
UniProt P10635, whole entry, looked up: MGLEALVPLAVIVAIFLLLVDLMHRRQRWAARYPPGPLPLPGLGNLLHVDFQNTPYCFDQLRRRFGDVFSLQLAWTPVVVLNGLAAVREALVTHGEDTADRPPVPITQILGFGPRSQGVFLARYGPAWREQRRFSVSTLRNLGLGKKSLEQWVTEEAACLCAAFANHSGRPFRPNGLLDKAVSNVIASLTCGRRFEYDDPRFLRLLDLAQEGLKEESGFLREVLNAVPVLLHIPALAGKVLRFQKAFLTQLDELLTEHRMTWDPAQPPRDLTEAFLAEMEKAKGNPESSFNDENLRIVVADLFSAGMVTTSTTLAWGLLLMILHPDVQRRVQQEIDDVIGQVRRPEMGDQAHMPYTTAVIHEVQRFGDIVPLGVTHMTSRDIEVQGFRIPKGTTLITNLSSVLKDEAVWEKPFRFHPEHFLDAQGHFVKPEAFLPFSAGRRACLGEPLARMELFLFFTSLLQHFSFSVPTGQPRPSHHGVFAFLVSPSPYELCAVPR

target: Cytochrome P450 2D6 (Homo sapiens) (UniProt P10635); test: Cytochrome P450 family 2 subfamily D member 6 (CYP2D6) small molecule antagonists: luciferase biochemical (cell-free) qHTS assay (AID 1645840); conditions: P450-Glo CYP2D6 enzyme, luciferin luminescence, 1 h; series mostly up to 57.4 µM; activity change, negative = inhibition: at the top concentration; note: nearly all actives have a fitted effect of over 55% in size
Procedure: National Center for Advancing Translational Sciences [NCATS] Assay Overview: Cytochrome P450 (CYP) enzymes are membrane-bound hemeproteins that play a key role in metabolism of drugs and xenobiotics. Assaying the effect of chemicals on CYP isozymes is useful to minimize the adverse drug reactions and toxicities in drug development process. Chemical compounds were tested for their effect on CYP enzyme activities by using P450-Glo (TM) screening systems (Promega Corporation, Madison, WI). These systems provide a luminescent method containing proluciferin substrates and are converted to luciferin products by CYP isozymes. The luciferin products formed are detected with a luciferin detection reagent, and the amount of light produced is proportional to CYP activity. P450-Glo (TM) CYP2D6 screening system (Catalog. No. V9890) was used to detect the compounds that interfere in CYP2D6 activity.
Assay Protocol Summary: Two ul of enzyme-substrate mix was dispensed into medium binding white/solid 1536-well plates (Greiner Bio-One North America Inc., Monroe, NC) using a Flying Reagent Dispenser (FRD, Aurora Discovery, San Diego, CA). […] The assay plates were incubated at room temperature for 10 min. Then 2 ul of NADPH regeneration solution was added to each well of the assay plates using an FRD and incubated at room temperature for 1 h. The reaction was stopped by adding 4 ul of detection reagent using an FRD and after 20 min incubation at room temperature, the luminescence signal was measured using a ViewLux plate reader (Perkin Elmer, Shelton, CT). Data were expressed as relative luminescence units.
% is set by controls: 0 for no effect and ±100 for the full control effect; potency is the fitted concentration of half-maximal effect.

Compound | activity change, negative = inhibition | Potency
NC(=O)NNc1ccccc1 | inactive: -6.34% | 
N#Cc1ccc(-c2ccc(S(=O)(=O)Nc3cccc(N)n3)cc2)cc1 | inactive: -7.46% | 
Nc1ccc(C(=O)Nc2cccc(-c3nc(N4CCOCC4)c4oc5ncccc5c4n3)c2)cn1 | inactive: 3.65% | 
CC(C)(CO)[C@@H](O)C(=O)NCCC(=O)NCCSSCCNC(=O)CCNC(=O)[C@H](O)C(C)(C)CO | inactive: -24.6% | 
C[C@@H](O)[C@H]1C(=O)N2C(C(=O)OCOC(=O)C(C)(C)C)=C(SC3CN(C4=NCCS4)C3)[C@H](C)[C@H]12 | inactive: -17.5% | 
NC(=O)c1cnc(-c2ccc(C3(N)CCC3)cc2)c(-c2ccccc2)c1 |  | active: 2.13 µM
Nc1nc2ccc(OC(F)(F)F)cc2s1 | inactive: -0.399% | 
Cc1cc(/C=C/c2ccc3cc(N(C)C)ccc3[n+]2C)c(C)n1-c1ccccc1 |  | active: 8.49 µM
CCCCC(=O)OCC(=O)[C@H]1[C@H](C)C[C@H]2[C@@H]3C[C@H](F)C4=CC(=O)C=C[C@]4(C)[C@@]3(F)[C@@H](O)C[C@@]21C |  | active: 11 µM
O=C(c1ccc(F)cc1)N1CCCC(c2nc(-c3ccc(F)cc3)no2)C1 (stereo not drawn) | inactive: -15.4% | 
C[C@@H]1C[C@H]2[C@@H]3C[C@H](F)C4=CC(=O)C=C[C@]4(C)[C@@]3(F)[C@@H](O)C[C@]2(C)[C@@]1(O)C(=O)CO |  | inactive
CC(C)n1c(=O)c(C(=O)NC2CC3CCC(C2)N3C[C@@H](O)CN(C)S(C)(=O)=O)cc2ccccc21 (stereo partly drawn) | inactive: -12.6% | 
CCn1cc(C(=O)O)c(=O)c2cc(F)c(N3CCN(C)CC3)cc21 | inactive: 11.6% [at 23.9 µM] | 
